Test results taken from article PMC5928155, “Sak4 of Phage HK620 Is a RecA Remote Homolog With Single-Strand Annealing Activity Stimulated by Its Cognate SSB Protein” (Frontiers in Microbiology, 2018).
A negative result means that nothing was seen under these conditions. For some assays here: Protein sequences can lack the tags named with them.

Key:
Experiment in all cases: EMSA
[1] = target: T1, Sak4 (HkaL) (Enterobacteria phage HK620) (UniProt Q9AZ29); settings: EMSA: 13 mM Tris-HCl pH 7.5, 5 mM MgCl2, 169 mM NaCl, 0.1 mg/mL BSA, 1 mM DTT, +/- 1 mM ATP, 10 nM DNA, 15 min at 30 C, 5% native PAGE in 1X TAE, recombinant protein, residues 1-226, label: 5'-Cy5, single-stranded DNA
T1 sequence (looked up): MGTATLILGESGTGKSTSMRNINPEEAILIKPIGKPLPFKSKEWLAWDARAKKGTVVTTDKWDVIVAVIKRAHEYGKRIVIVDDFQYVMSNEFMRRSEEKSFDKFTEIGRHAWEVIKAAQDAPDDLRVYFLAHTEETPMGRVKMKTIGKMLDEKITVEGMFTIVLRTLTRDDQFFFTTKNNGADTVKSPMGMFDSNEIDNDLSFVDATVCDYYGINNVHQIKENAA

[2] = system: Sak4 (HkaL) + SSB HK620 (HkaK); settings: no ATP, Sak4 does not shift SSB-ssDNA complexes (SSB itself bound); EMSA: 13 mM Tris-HCl pH 7.5, 5 mM MgCl2, 169 mM NaCl, 0.1 mg/mL BSA, 1 mM DTT, +/- 1 mM ATP, 10 nM DNA, 15 min at 30 C; 5% native PAGE in 1X TAE; recombinant protein; label: 5'-Cy5; single-stranded DNA
[3] = system: Sak4 (HkaL) + SSB HK620 delta6; settings: Sak4 does not shift SSBdelta6-ssDNA complexes (SSBdelta6 itself bound), EMSA: 13 mM Tris-HCl pH 7.5, 5 mM MgCl2, 169 mM NaCl, 0.1 mg/mL BSA, 1 mM DTT, 10 nM DNA, 15 min at 30 C, 5% native PAGE in 1X TAE, recombinant protein

Measured: binding result

ACCTGAATCGCCAGCGGCATCAGCACCTTGTCGCCTTACGTATACTATTTGCCCATGGTGAAAACGGGGGCGAAGAAGTTG [GO47]
no binding: [1]; ADP | [1]; no ATP | [2] | [3]; 1 mM ATP, label: 5'-Cy5, single-stranded DNA | [3]; no ATP, +/- 1 mM ATP, label: 5'-Cy5, single-stranded DNA
